In the assay the target is recombinant human TFPI (tissue factor pathway inhibitor) (human) (UniProt P10646). The assay can be described thus: yeast-display scFv, FACS with biotinylated TFPI.

The chains behind the UniProt entries cited, without tags or fusion partners. Where a name states a change or a piece, a line headed by the entry shows the natural chain unless it says otherwise.
UniProt P10646: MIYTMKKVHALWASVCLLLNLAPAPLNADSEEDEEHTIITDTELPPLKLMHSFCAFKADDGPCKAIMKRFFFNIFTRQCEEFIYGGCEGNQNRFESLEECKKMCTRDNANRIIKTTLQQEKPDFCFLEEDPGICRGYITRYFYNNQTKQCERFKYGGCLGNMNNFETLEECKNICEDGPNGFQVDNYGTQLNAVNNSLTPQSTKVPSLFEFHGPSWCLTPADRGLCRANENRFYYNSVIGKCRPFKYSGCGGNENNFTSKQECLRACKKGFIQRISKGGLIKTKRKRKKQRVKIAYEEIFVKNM

Results are given in words; binding and its absence hold for the method and conditions named. Some results given as binding are weak or reduced against the parent protein; the word gives no strength.

B1: clone 22 (antibody, V domains shown)
VH: EVQLVESGGGLVKPGGSLRLSCAASGFTFSSYAMNWVRQAPGKGLEWVSTITTGGSHTYYADSVEGRFTISRDNAKNSLYLQMNSLRAEDTAVYYCARQDGHFLMDYWGQGTLVTVSS
VL: DVVMTQTPLSLPVTLGQPASISCKSSPSLLDVDGKTYLNWLQQRPGQSPKRLIYLVSKLDSGVPDRFTGSGSGTDFTLKISRVEAEDVGVYYCWQGTYFPFTFGQGTKVEIKR
Turning to B1, the binding entry was “binds”.

B2: clone 23 (antibody, V domains shown)
VH: EVQLVESGGGLVKPGGSLRLSCAASGFTFSHYAMNWVRQAPGKGLEWVSTITTGGSYTYYADSVEGRFTISRDNAKNSLYLQMNSLRAEDTAVYYCARQDGHFLMDYWGQGTLVTVSS
VL: DVVMTQTPLSLPVTLGQPASISCKSSPSLLDIDGKTYLNWLQQRPGQSPKRLIYLVSKLDSGVPDRFTGSGSGTDFTLKISRVEAEDVGVYYCWQGTHLPFTFGQGTKVEIKR
For B2, the binding result was “binds”.

The values above are taken from US20180030151A1.
